PubChem BioAssay AID1224830 | NIAID, 2016
The deposit covers about 18,000 reagents; this is a part drawn at random. Of all reagents, about 2,900 (16%) got an active call. 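Calls are made per well; low scores hint the gene aids the LPS response, high scores that it dampens it.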 Repeated entries: four replicate wells of each siRNA pool.

Test: 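Genes whose knock-down alters the TNF-alpha reporter response to LPS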 (primary screen)
Cell system: human THP-1 monocytic leukaemia cells, TNF dual-luciferase reporter clone, PMA-differentiated to macrophage-like cells
Knock-down reagent: siRNA pool against human genes, 50 nM
Duration: LPS for 4 h, given about 3 days after siRNA transfection
Treatment: bacterial LPS (TLR4 ligand), 10 ng/ml
Measured: 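TNF firefly reporter luminescence divided by renilla, normalised to the plate median, then turned into a robust z-score for each replicate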
Scale: TNF reporter robust z-score: higher = stronger TNF reporter response to LPS
Active means: 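a well is active when its z-score exceeds 2.8 or falls below -1.5; control wells carry no call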

Gene | PubChem SID | TNF reporter robust z-score | activity call
NDUFAF1 (NADH:ubiquinone oxidoreductase complex assembly factor 1) | SID315456472 | 0.09 | inactive
NDUFAF1 (NADH:ubiquinone oxidoreductase complex assembly factor 1) | SID315456472 | -0.15 | inactive
NDUFAF1 (NADH:ubiquinone oxidoreductase complex assembly factor 1) | SID315456472 | -0.67 | inactive
NDUFAF1 (NADH:ubiquinone oxidoreductase complex assembly factor 1) | SID315456472 | -0.9 | inactive
DAAM2 (dishevelled associated activator of morphogenesis 2) | SID315455281 | -0.98 | inactive
DAAM2 (dishevelled associated activator of morphogenesis 2) | SID315455281 | 0.07 | inactive
DAAM2 (dishevelled associated activator of morphogenesis 2) | SID315455281 | 1.72 | inactive
DAAM2 (dishevelled associated activator of morphogenesis 2) | SID315455281 | 1.18 | inactive
ZNF780A (zinc finger protein 780A) | SID315463759 | 2.18 | inactive
ZNF780A (zinc finger protein 780A) | SID315463759 | 0.2 | inactive
ZNF780A (zinc finger protein 780A) | SID315463759 | 0.76 | inactive
ZNF780A (zinc finger protein 780A) | SID315463759 | -0.47 | inactive
TIGD4 (tigger transposable element derived 4) | SID315463089 | -1.4 | inactive
TIGD4 (tigger transposable element derived 4) | SID315463089 | -1.17 | inactive
TIGD4 (tigger transposable element derived 4) | SID315463089 | -1.31 | inactive
TIGD4 (tigger transposable element derived 4) | SID315463089 | -0.95 | inactive
NVL (nuclear VCP like) | SID315450334 | -0.87 | inactive
NVL (nuclear VCP like) | SID315450334 | -0.31 | inactive
NVL (nuclear VCP like) | SID315450334 | 0.05 | inactive
NVL (nuclear VCP like) | SID315450334 | -0.23 | inactive
AIMP2 | SID315452357 | 0.6 | inactive
AIMP2 | SID315452357 | -0.52 | inactive
AIMP2 | SID315452357 | -0.49 | inactive
AIMP2 | SID315452357 | 0.42 | inactive
TMEM140 (transmembrane protein 140) | SID315457560 | 0.48 | inactive
TMEM140 (transmembrane protein 140) | SID315457560 | 1.01 | inactive
TMEM140 (transmembrane protein 140) | SID315457560 | 1.37 | inactive
TMEM140 (transmembrane protein 140) | SID315457560 | 0.81 | inactive
MPP7 (MAGUK p55 scaffold protein 7) | SID315462175 | 1.34 | inactive
MPP7 (MAGUK p55 scaffold protein 7) | SID315462175 | 2.24 | inactive
MPP7 (MAGUK p55 scaffold protein 7) | SID315462175 | 1.05 | inactive
MPP7 (MAGUK p55 scaffold protein 7) | SID315462175 | 1.19 | inactive
EGFL6 (EGF like domain multiple 6) | SID315455589 | 0.38 | inactive
EGFL6 (EGF like domain multiple 6) | SID315455589 | 2.64 | inactive
EGFL6 (EGF like domain multiple 6) | SID315455589 | 0.94 | inactive
EGFL6 (EGF like domain multiple 6) | SID315455589 | 0.99 | inactive
RANBP3 (RAN binding protein 3) | SID315452602 | 0.36 | inactive
RANBP3 (RAN binding protein 3) | SID315452602 | 1.38 | inactive
RANBP3 (RAN binding protein 3) | SID315452602 | -0.6 | inactive
RANBP3 (RAN binding protein 3) | SID315452602 | 1.15 | inactive
CPN1 (carboxypeptidase N subunit 1) | SID315448070 | -1.19 | inactive
CPN1 (carboxypeptidase N subunit 1) | SID315448070 | -0.08 | inactive
CPN1 (carboxypeptidase N subunit 1) | SID315448070 | -0.69 | inactive
CPN1 (carboxypeptidase N subunit 1) | SID315448070 | -0.62 | inactive
CCS (copper chaperone for superoxide dismutase) | SID315453721 | -0.26 | inactive
CCS (copper chaperone for superoxide dismutase) | SID315453721 | -0.76 | inactive
CCS (copper chaperone for superoxide dismutase) | SID315453721 | -1.43 | inactive
CCS (copper chaperone for superoxide dismutase) | SID315453721 | -1.27 | inactive
PDP2 (pyruvate dehydrogenase phosphatase catalytic subunit 2) | SID315458456 | 0.27 | inactive
PDP2 (pyruvate dehydrogenase phosphatase catalytic subunit 2) | SID315458456 | -0.96 | inactive
PDP2 (pyruvate dehydrogenase phosphatase catalytic subunit 2) | SID315458456 | 0.51 | inactive
PDP2 (pyruvate dehydrogenase phosphatase catalytic subunit 2) | SID315458456 | -0.9 | inactive
TJP3 (tight junction protein 3) | SID315455942 | 0.94 | inactive
TJP3 (tight junction protein 3) | SID315455942 | 1.25 | inactive
TJP3 (tight junction protein 3) | SID315455942 | 0.62 | inactive
TJP3 (tight junction protein 3) | SID315455942 | 1.27 | inactive
THAP2 (THAP domain containing 2) | SID315460026 | 0.32 | inactive
THAP2 (THAP domain containing 2) | SID315460026 | 0.18 | inactive
THAP2 (THAP domain containing 2) | SID315460026 | 0.65 | inactive
THAP2 (THAP domain containing 2) | SID315460026 | 0.98 | inactive
MRPL38 (mitochondrial ribosomal protein L38) | SID315459061 | 1.45 | inactive
MRPL38 (mitochondrial ribosomal protein L38) | SID315459061 | -0.31 | inactive
MRPL38 (mitochondrial ribosomal protein L38) | SID315459061 | -0.92 | inactive
MRPL38 (mitochondrial ribosomal protein L38) | SID315459061 | -0.25 | inactive
MYL12B (myosin light chain 12B) | SID315461136 | 1.09 | inactive
MYL12B (myosin light chain 12B) | SID315461136 | 0.11 | inactive
MYL12B (myosin light chain 12B) | SID315461136 | 0 | inactive
MYL12B (myosin light chain 12B) | SID315461136 | 0.04 | inactive
DHX32 (DEAH-box helicase 32 (putative)) | SID315457834 | 1.96 | inactive
DHX32 (DEAH-box helicase 32 (putative)) | SID315457834 | 2.22 | inactive
DHX32 (DEAH-box helicase 32 (putative)) | SID315457834 | 1.59 | inactive
DHX32 (DEAH-box helicase 32 (putative)) | SID315457834 | 1.93 | inactive
ZDHHC2 (zDHHC palmitoyltransferase 2) | SID315456550 | 2.66 | inactive
ZDHHC2 (zDHHC palmitoyltransferase 2) | SID315456550 | 1.09 | inactive
ZDHHC2 (zDHHC palmitoyltransferase 2) | SID315456550 | 1.34 | inactive
ZDHHC2 (zDHHC palmitoyltransferase 2) | SID315456550 | 1.76 | inactive
RAVER2 (ribonucleoprotein, PTB binding 2) | SID315457513 | 0.83 | inactive
RAVER2 (ribonucleoprotein, PTB binding 2) | SID315457513 | 1.91 | inactive
RAVER2 (ribonucleoprotein, PTB binding 2) | SID315457513 | 0 | inactive
RAVER2 (ribonucleoprotein, PTB binding 2) | SID315457513 | 1.31 | inactive
DNAH11 (dynein axonemal heavy chain 11) | SID315452755 | -0.28 | inactive
DNAH11 (dynein axonemal heavy chain 11) | SID315452755 | 0.63 | inactive
DNAH11 (dynein axonemal heavy chain 11) | SID315452755 | -0.6 | inactive
DNAH11 (dynein axonemal heavy chain 11) | SID315452755 | -0.56 | inactive
FEZF1 (FEZ family zinc finger 1) | SID315464565 | 0.11 | inactive
FEZF1 (FEZ family zinc finger 1) | SID315464565 | 0.21 | inactive
FEZF1 (FEZ family zinc finger 1) | SID315464565 | -0.43 | inactive
FEZF1 (FEZ family zinc finger 1) | SID315464565 | 0.32 | inactive
TRMT44 (tRNA methyltransferase 44 homolog) | SID315462550 | 0.1 | inactive
TRMT44 (tRNA methyltransferase 44 homolog) | SID315462550 | 1.01 | inactive
TRMT44 (tRNA methyltransferase 44 homolog) | SID315462550 | 0.37 | inactive
TRMT44 (tRNA methyltransferase 44 homolog) | SID315462550 | -0.38 | inactive
IFITM3 (interferon induced transmembrane protein 3) | SID315454065 | 2.76 | inactive
IFITM3 (interferon induced transmembrane protein 3) | SID315454065 | 3.1 | active
IFITM3 (interferon induced transmembrane protein 3) | SID315454065 | 2.21 | inactive
IFITM3 (interferon induced transmembrane protein 3) | SID315454065 | 0.24 | inactive
DNAJC11 (DnaJ heat shock protein family (Hsp40) member C11) | SID315457811 | -0.7 | inactive
DNAJC11 (DnaJ heat shock protein family (Hsp40) member C11) | SID315457811 | -0.5 | inactive
DNAJC11 (DnaJ heat shock protein family (Hsp40) member C11) | SID315457811 | -1.08 | inactive
DNAJC11 (DnaJ heat shock protein family (Hsp40) member C11) | SID315457811 | -0.23 | inactive
CX3CL1 (C-X3-C motif chemokine ligand 1) | SID315451351 | -0.17 | inactive
CX3CL1 (C-X3-C motif chemokine ligand 1) | SID315451351 | -0.03 | inactive
CX3CL1 (C-X3-C motif chemokine ligand 1) | SID315451351 | -0.94 | inactive
CX3CL1 (C-X3-C motif chemokine ligand 1) | SID315451351 | 0.36 | inactive
FARS2 (phenylalanyl-tRNA synthetase 2, mitochondrial) | SID315454283 | -0.23 | inactive
FARS2 (phenylalanyl-tRNA synthetase 2, mitochondrial) | SID315454283 | 0.84 | inactive
FARS2 (phenylalanyl-tRNA synthetase 2, mitochondrial) | SID315454283 | 0.07 | inactive
FARS2 (phenylalanyl-tRNA synthetase 2, mitochondrial) | SID315454283 | 1.09 | inactive
PI4K2B (phosphatidylinositol 4-kinase type 2 beta) | SID315457578 | 0.86 | inactive
PI4K2B (phosphatidylinositol 4-kinase type 2 beta) | SID315457578 | 0.37 | inactive
PI4K2B (phosphatidylinositol 4-kinase type 2 beta) | SID315457578 | 0.39 | inactive
PI4K2B (phosphatidylinositol 4-kinase type 2 beta) | SID315457578 | 0.03 | inactive
